In PubChem BioAssay AID2685 (National Center for Advancing Translational Sciences (NCATS), 2010):
Some of the results follow. Shown are side measurements of this screen, not its main read-out; they come without a call. Most of these compounds were active or inconclusive in the main read-out, so they are no random draw. Words in brackets tell the shape of the fitted curve; partial curves, single points and poor fits give uncertain potencies.

Assay: qHTS Assay for Lipid Storage Modulators in Drosophila S3 Cells;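 on cell number change: cells counted by Cell Tracker Red CMTPX staining in the red channel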
Conditions: BODIPY lipid droplet fluorescence, 18-24 h; for cell number change: measured here: cell count max response, cells fed with added oleic acid
In short: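 Drosophila S3 cells loaded with oleic acid (400 uM, as added) and compounds at several concentrations; lipid droplets imaged by 488-nm laser-scanning cytometry, 500–530 nm intensity and object ratio to cell channel. Percent activity normalized to 20 uM Triacsin C.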

[1] = measured here: lipid fluorescence (Fed channel) AC50, cells fed with added oleic acid
[2] = measured here: cell number channel AC50, cells fed with added oleic acid

Row | Structure (SMILES) | cell number change | AC50 [1] | AC50 [2]
1 | CCCn1c(=O)c(C(=O)NNC(=O)c2ccccc2Cl)c(O)c2ccccc21 | -0.855% | 29.1 µM [falling, partial curve, poor fit] | 
2 | CCOC(=O)N1CCC(Nc2c(-c3ccccc3)c(=O)c2=O)CC1 | 140% |  | 29.1 µM [rising, single point]
3 | Cc1cccc(C)c1NC(=O)CSc1nnc(CCCCCNC(=O)OC(C)(C)C)o1 | -23.6% | 2.06 µM [rising, partial curve] | 
4 | Cc1c(Cl)c([N+](=O)[O-])nn1CCCC(=O)Nc1sc2c(c1C(N)=O)CCC(C)C2 (centres undefined) | 11% | 8.2 µM [rising, partial curve] | 
5 | COc1cccc(NC(=O)CN(C)C(=O)CCN2C(=O)C3CC=CCC3C2=O)c1 (centres undefined) | -19% |  | 3.66 µM [falling, single point]
6 | CCCCNC(=O)c1onc(CSc2ccc(F)cc2)c1C(=O)NCCCC | 2.91% | 2.06 µM [rising, partial curve, poor fit] | 
7 | O=C(CCc1ccc(S(=O)(=O)NCc2ccccc2)cc1)NCc1ccc2c(c1)OCO2 | 19.1% | 6.51 µM [rising, single point] | 
8 | CCOCCn1ccc2c(OCC(=O)Nc3ccc(OC)c(OC)c3)cccc2c1=O | 73.5% |  | 23.1 µM [rising, partial curve]
9 | COc1cc(OC)cc(C(=O)Nc2ccccc2-c2nnn(CC(=O)Nc3cc(C)on3)n2)c1 | 188% |  | 16.4 µM [rising, partial curve]
10 | O=C(C1CCC(C(=O)N2CCCCC2)CC1)N1CCCCC1 (centres undefined) | -25.1% | 18.4 µM [falling, single point] | 3.26 µM [falling, full curve, poor fit]
11 | COC(=O)c1c(NC(=O)CSc2nncs2)sc2c1CCCCC2 | -17.8% | 16.4 µM [rising, single point] | 
12 | Cc1ccc(O)c(C(CC(=O)NC(C)C)c2ccccc2)c1 (centres undefined) | -8.92% | 0.58 µM [falling, single point] | 
13 | CCC(C(=O)Nc1ccon1)c1ccccc1 (centres undefined) |  |  | 0.146 µM [falling, full curve, poor fit]
14 | COc1ccc(/C=C2/SC(=S)N(CCCC(=O)Nc3cccc(O)c3)C2=O)cc1 | -34.1% | 13 µM [falling, partial curve] | 23.1 µM [falling, single point]
15 | O=C(NCC1CCCO1)c1ccccc1-c1nc(-c2ccccc2F)no1 (centres undefined) | -38.5% |  | 18.4 µM [falling, single point]
16 | CCC(=O)NC(=S)Nc1ccccc1OC | -50.9% | 13 µM [falling, partial curve] | 29.1 µM [falling, single point]
17 | Cn1nc(-c2ccc(OCC(N)=O)cc2)c2ccccc2c1=O | 123% | 2.59 µM [rising, partial curve] | 2.59 µM [rising, full curve]
18 | CCc1cc(=O)oc2cc(OCC(=O)NCCCn3ccnc3)ccc12 | 30% | 14.6 µM [rising, partial curve] | 

Row | Structure (SMILES) | cell number change | AC50 [1] | AC50 [2]
19 | Cc1ccc(CNC(=O)c2ccc3nc4[nH]c5ccccc5c4nc3c2)cc1 | -30.1% | 3.26 µM [falling, full curve] | 4.61 µM [falling, full curve, poor fit]
20 | COc1ccc(NC(=O)C(NC(=O)c2ccc(C)cc2)c2ccccc2)cc1 (centres undefined) | -8.92% | 20.6 µM [rising, single point] | 
21 | O=C(CSc1nnnn1-c1ccccc1)CC(=O)Nc1ccc(Cl)cc1 | -8.16% | 6.51 µM [falling, partial curve, poor fit] | 
22 | CCOC(=O)c1c(NC(=O)C(C)N2CCN(S(=O)(=O)c3cccs3)CC2)sc2c1CCC(C)C2 (centres undefined) | 76% | 6.51 µM [rising, partial curve, poor fit] | 0.461 µM [rising, full curve]
23 | Cc1c(C)c2ccc(OCC(=O)N3CCN(C(=O)C4COc5ccccc5O4)CC3)cc2oc1=O (centres undefined) | -9.51% |  | 
24 | CC(=O)Nc1ccccc1OC(C)C(=O)NC(C)c1ccc(F)cc1 (centres undefined) | -8.68% |  | 0.116 µM [rising, full curve, poor fit]
25 | Cn1c(SCC(=O)NCc2ccco2)nnc1-c1ccc(S(=O)(=O)N2CCOCC2)cc1 |  | 5.17 µM [falling, full curve] | 
26 | CCC(CC)C(=O)N1N=C(c2ccc(NS(C)(=O)=O)cc2)CC1c1ccc(C)cc1 (centres undefined) | -36% | 29.1 µM [falling, single point] | 29.1 µM [falling, single point]
27 | COc1ccc2oc(C(=O)OCC(=O)N3CCN(C(C)=O)CC3)c(C)c2c1 | 89% |  | 
28 | O=S(=O)(NCc1ccc(F)cc1)c1ccc(-n2cccn2)cc1 | 12.3% |  | 
29 | O=C(NCCc1ccccn1)c1ccc(OC(F)F)cc1 |  |  | 0.00461 µM [falling, full curve, poor fit]
30 | C(=N\Nc1nc(Nc2ccccc2)nc(N2CCOCC2)n1)/c1c[nH]c2ccccc12 | -40.9% | 5.8 µM [falling, partial curve] | 5.17 µM [falling, partial curve]
31 | CC(C)C[C@@H](C(=O)NCc1ccco1)N1C(=O)N2CCc3c([nH]c4ccccc34)[C@@]2(C)C1=O | -9.71% | 13 µM [falling, partial curve, poor fit] | 
32 | CCCCCCC(=O)N/N=C/c1ccc(Br)cc1 | -40.3% | 1.16 µM [falling, single point] | 14.6 µM [falling, partial curve]
33 | COc1ccccc1NS(=O)(=O)c1cccc(C(=O)N/N=C/c2cn(-c3ccccc3)nc2-c2ccccc2)c1 | -13.9% |  | 1.64 µM [rising, partial curve]
34 | O=C(N=Nc1c(O)[nH]c2ccccc12)c1ccccc1NS(=O)(=O)c1cccs1 | -26.3% |  | 0.58 µM [rising, full curve]
35 | CC1(C)CC(NCc2ccncc2)CC(C)(C)N1 | -34.7% | 13 µM [falling, partial curve, poor fit] | 29.1 µM [falling, single point]

Molecules listed so far that contain two or more sulfur atoms:
Row | Structure (SMILES) | cell number change | AC50 [1] | AC50 [2]
11 | COC(=O)c1c(NC(=O)CSc2nncs2)sc2c1CCCCC2 | -17.8% | 16.4 µM [rising, single point] | 
14 | COc1ccc(/C=C2/SC(=S)N(CCCC(=O)Nc3cccc(O)c3)C2=O)cc1 | -34.1% | 13 µM [falling, partial curve] | 23.1 µM [falling, single point]
22 | CCOC(=O)c1c(NC(=O)C(C)N2CCN(S(=O)(=O)c3cccs3)CC2)sc2c1CCC(C)C2 (centres undefined) | 76% | 6.51 µM [rising, partial curve, poor fit] | 0.461 µM [rising, full curve]
25 | Cn1c(SCC(=O)NCc2ccco2)nnc1-c1ccc(S(=O)(=O)N2CCOCC2)cc1 |  | 5.17 µM [falling, full curve] | 
34 | O=C(N=Nc1c(O)[nH]c2ccccc12)c1ccccc1NS(=O)(=O)c1cccs1 | -26.3% |  | 0.58 µM [rising, full curve]
